The values that follow come from article PMC5996148.

Amino acid sequences for entries named in this document (tags omitted). A change or cut given only in a name is not applied to a line headed by its entry.
UniProt Q9BUP3: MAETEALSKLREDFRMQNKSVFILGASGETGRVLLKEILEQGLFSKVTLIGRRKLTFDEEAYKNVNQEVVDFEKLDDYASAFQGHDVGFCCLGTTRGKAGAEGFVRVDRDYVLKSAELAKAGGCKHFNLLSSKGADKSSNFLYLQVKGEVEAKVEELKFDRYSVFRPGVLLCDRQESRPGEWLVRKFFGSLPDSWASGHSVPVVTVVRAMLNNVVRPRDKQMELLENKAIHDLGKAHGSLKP

What all share (assay): protein microarray (ProtoArray v5.0), streptavidin-Alexa Fluor 647
What all share (settings): 3'-biotin; 20 mM Tris (pH 7.5), 5 mM MgCl2, 100 mM KCl, 0.1% Tween-20, A/T-rich and random oligonucleotide blockers; temperature not stated; high values mean tight binding

Test [1] concerns HSPBAP1 (human).
The test system of test [2] is HSPBP1 (human).
The test system of test [3] is HSPC111 (human).
Test [4] relates to HSPC142 (human).
Test [5] concerns the target HTATIP2 (UniProt Q9BUP3).
The subject of test [6] is HYPK (human).
Test [7] deals with Hemoglobin subunit mu (human).
The subject of test [8] is Hexaprenyldihydroxybenzoate methyltransferase, mitochondrial (human).
In test [9] the test system is Hexokinase-3 (human).
The test system of test [10] is High affinity cAMP-specific and IBMX-insensitive 3prime,5prime-cyclic phosphodiesterase 8A (human).

This is one part of the list. For some of these results: The exact form of the protein is not confirmed.

With “GGTGACAGGGGTATGGGGAGGGG [G4-2 biotinylated (Ct1)]”, the binding signal is -0.367 z-score in test [1]; -0.398 z-score in test [2]; 6.78 z-score in test [3]; -0.396 z-score in test [4]; -0.387 z-score in test [5]; -0.385 z-score in [6]. For the same sequence, the binding signal in test [7] was -0.396 z-score; in [8] it was -0.399 z-score; in [9] it was -0.385 z-score; in test [10], -0.383 z-score.
